Results reported in PubChem BioAssay AID504834 (National Center for Advancing Translational Sciences (NCATS), 2011).
In all, about 320,000 compounds went through this assay and about 22,000 (6.9%) were called active. Inconclusive means that the source gave no clear call. Such entries were picked first, then a sample of the others. Calls come from the whole dose curve; as a rule, active = well fitted inhibition curve with a large enough effect; inconclusive = small, poorly fitted or top-dose-only effect, or another doubt; inactive = no such curve, though single readings can be large or run the other way. Potencies of inconclusive entries are doubtful fits and often do not repeat.

Assay: Primary qHTS for delayed death inhibitors of the malarial parasite plastid, 96 hour incubation
Settings: P. falciparum luciferase reporter growth; series mostly up to 28.7 µM; activity change, negative = inhibition: at the top concentration
Outline: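 P. falciparum expressing integrated firefly luciferase grown in erythrocytes (2% hematocrit, 0.05% parasitemia final) with compounds for 96 hours at 37 C, 5% CO2. Growth inhibition read as loss of luminescence after adding luciferase detection reagent.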
% is set by controls: 0 for no effect and ±100 for the full control effect; potency is the fitted concentration of half-maximal effect.

Row | Compound | Potency | activity change, negative = inhibition
1 | COc1ccc(-c2n[nH]c(C)c2-c2ccc(OC)c(OC)c2)c(O)c1 | inconclusive: 14.7 µM [inhibitor, single point] | –
2 | O=C(CSc1nnc(-c2ccncc2)n1-c1ccccc1)NC1CC1 | – | inactive: -5.69%
3 | CCOC(=O)NCc1ccc(S(=O)(=O)Nc2ccccc2C)cc1 | active: 13.1 µM | –
4 | Cc1[nH]n(-c2ccccc2)c(=O)c1CCOC(=O)c1ccc(C(F)(F)F)cc1 | inconclusive: 16.5 µM [inhibitor, partial curve, poor fit] | –
5 | COc1ccc(S(=O)(=O)Nc2ccccn2)cc1C(=O)Nc1ccccc1 | inconclusive: 3.29 µM [inhibitor, partial curve, poor fit] | –
6 | Cc1ccc2nc(SC(C)C(=O)NC3CCCc4ccccc43)[nH]c2c1 (stereo not given) | inconclusive: 18.5 µM [inhibitor, single point] | –
7 | Cc1ccc(N2C(=O)CCC(C(=O)O)C2c2cccs2)cc1 (stereo not given) | inconclusive: 18.5 µM [inhibitor, single point] | –
8 | COc1ccccc1NC(=O)c1cc(S(=O)(=O)N2CCCCCC2)ccc1F | inconclusive: 3.7 µM [inhibitor, partial curve, poor fit] | –
9 | O=c1[nH]c(O)c(/C=C2\C=Nc3ccc(Br)cc32)[nH]1 | inconclusive: 18.5 µM [inhibitor, single point] | –
10 | Cc1ccc(N(C(=O)CNC(=O)c2ccco2)C(C(=O)NC2CCCC2)c2cccnc2)c(C)c1 (stereo not given) | – | inactive: -3.47%
11 | COc1cc(NC(=O)c2cnc(N)s2)cc(C(=O)Nc2cccc(C(F)(F)F)c2)c1 | active: 3.29 µM | –
12 | CC(=O)C1=NN(c2ccccc2)C(c2cccs2)N1c1ccc(N(C)C)cc1 (stereo not given) | active: 2.08 µM | –
13 | CCCn1c(CC)nc([N+](=O)[O-])c1Sc1ccc(C)cc1 | active: 10.4 µM | –
14 | COc1cc2cc(CCOC(=O)c3ccc(F)cc3)oc(=O)c2cc1OC | inconclusive: 3.7 µM [inhibitor, partial curve, poor fit] | –
15 | Cc1nn(CC(=O)Nc2cc(S(=O)(=O)N3CCOCC3)ccc2Cl)c(C)c1[N+](=O)[O-] | inconclusive: 16.5 µM [inhibitor, single point] | –
16 | CCc1nnc(NC(=O)C2CCN(S(=O)(=O)Cc3ccccc3)CC2)s1 | inconclusive: 18.5 µM [inhibitor, single point] | –
17 | N#Cc1ccccc1NC(=O)C1SC(=Nc2ccccc2)C(C(=O)Nc2ccc(Cl)cc2)=C1N (stereo not given) | – | inactive: 0%
18 | CC1CN(C(=O)CSc2nc(-c3ccc(F)cc3)cs2)CC(C)O1 (stereo not given) | inconclusive: 18.5 µM [inhibitor, single point] | –
19 | Cc1onc(-c2ccccc2Cl)c1C(=O)N1CCc2ccccc2C1 | inconclusive: 11.7 µM [inhibitor, single point] | –
20 | COc1ccc(N(CC(=O)Nc2ccc3c(c2)OCO3)S(=O)(=O)c2ccccc2)c(OC)c1 | – | inactive: 9.18%
21 | O=C(CS(=O)(=O)c1ccc2ccccc2c1)N1CCCCCC1 | inconclusive: 18.5 µM [inhibitor, single point] | –
22 | COc1ccc(NC(=O)c2ccccc2NC(=O)CSc2ccc(Cl)cc2)cc1 | inconclusive: 18.5 µM [inhibitor, single point] | –
23 | CC(C)(C)C(=O)Cn1c(=N)n(Cc2ccccc2)c2ccccc21 | inconclusive: 9.28 µM [inhibitor, partial curve, poor fit] | –
24 | C/C(=N\NC(=O)c1cc(C)oc1C)c1ccc2c(c1)OCO2 | – | inactive: 12.3%

Row | Compound | Potency | activity change, negative = inhibition
25 | COc1ccc(S(=O)(=O)N(CC(=O)N2CCCCCC2)c2ccccc2OC)cc1 | inconclusive: 0.37 µM [inhibitor, full curve, poor fit] | –
26 | Fc1cc(F)nc(NCc2ccccc2)n1 | – | inactive: 45.5%
27 | COc1cc(NC(=O)c2ccccc2)c(OC)cc1NC(=O)CN1C(=O)NC2(CCCCC2)C1=O | inconclusive: 18.5 µM [inhibitor, single point] | –
28 | O=C(NC1CCN(C(=O)Nc2ccc(F)cc2)CC1)c1ccccc1F | – | inactive: 16%
29 | CO/N=C/c1ccc(N2CCN(C(=O)c3ccc(F)cc3)CC2)c([N+](=O)[O-])c1 | inconclusive: 18.5 µM [inhibitor, single point] | –
30 | Cc1cccc2sc(NC(=O)C3CCCN(S(=O)(=O)c4cccc5nonc45)C3)nc12 (stereo not given) | inconclusive: 0.738 µM [inhibitor, partial curve, poor fit] | –
31 | COc1ccc(CCNc2nncc(=O)[nH]2)cc1OC | inconclusive: 13.1 µM [inhibitor, single point] | –
32 | Cc1cc(C)nc(-n2ncc3c2CC(c2ccc(C(C)C)cc2)CC3=O)n1 (stereo not given) | inconclusive: 9.28 µM [inhibitor, single point] | –
33 | Cc1c(C(=O)N2CCOCC2)c(S(=O)(=O)N2CCN(c3ccc(Cl)cc3)CC2)c(C)n1C | – | inactive: -13.6%
34 | C/C(=N\NC(=O)c1cc(C)nc2ccccc12)c1cccs1 | inconclusive: 18.5 µM [inhibitor, single point] | –
35 | O=C(CC1C(=O)NCCN1Cc1ccccc1)NCCCOc1cccnc1 (stereo not given) | – | inactive: 3.16%
36 | Cc1ccc(-n2ncc3c2CCCC3NC(=O)c2csnn2)cc1C (stereo not given) | inconclusive: 18.5 µM [inhibitor, single point] | –
37 | Cc1[nH]n(-c2ccccc2)c(=O)c1N=Nc1cccc(Cl)c1 | – | inactive: 221%
38 | CC(=O)NCC1(O)CCCC(C)C1 (stereo not given) | inconclusive: 0.147 µM [inhibitor, full curve, poor fit] | –
39 | O=C(NNC(=S)Nc1ccc(F)cc1F)c1ccco1 | – | inactive: -19.3%
40 | CCOc1ccccc1NS(=O)(=O)c1ccc(-c2cnc(C3CC3)o2)cc1 | – | inactive: 17%
41 | Cc1c(OCc2ccccc2)c(=O)ccn1Cc1ccc(Cl)cc1 | inconclusive: 1.04 µM [inhibitor, full curve, poor fit] | –
42 | CCOc1cccc(N(C(=O)CCC(=O)Nc2cc(C)on2)C(C(=O)NC(C)(C)C)c2ccc(OC)cc2)c1 (stereo not given) | inconclusive: 10.4 µM [inhibitor, partial curve, poor fit] | –
43 | O=C(CSc1nc2ccc(Cl)cc2[nH]1)NCc1ccco1 | inconclusive: 5.22 µM [inhibitor, partial curve, poor fit] | –
44 | CC(=O)Nc1ccc(Oc2ccc(S(=O)(=O)N3CCCC3)cn2)cc1 | inconclusive: 14.7 µM [inhibitor, single point] | –
45 | CCCn1c(=N)n(CC(=O)c2ccc(Cl)cc2)c2ccccc21 | inconclusive: 18.5 µM [inhibitor, single point] | –
46 | Cn1c(N)c(C(=O)COC(=O)C23CC4CC(CC(C4)C2)C3)c(=O)n(C)c1=O | active: 14.7 µM | –
47 | COC(=O)C1=C(c2ccccc2OCc2ccccc2)C[C@@H]2CC[C@H]1N2C(=O)NCCOc1ccccc1 | inconclusive: 8.28 µM [inhibitor, partial curve] | –
48 | CCOc1ccc(/C=N/N2C(C)CCCC2C)cc1OC (stereo not given) | active: 10.4 µM | –

Row | Compound | Potency | activity change, negative = inhibition
49 | CC(=O)C1=NN(c2ccccc2)C(c2ccc3c(c2)OCO3)N1c1ccc(N2CCOCC2)cc1 (stereo not given) | inconclusive: 11.7 µM [inhibitor, partial curve, poor fit] | –
50 | COc1cccc(NC(=O)CN2CCc3ccccc3C2)c1 | – | inactive: -12.4%
51 | CCn1c(CN2CCOCC2)nnc1SCC(=O)Nc1cccc(C)c1 | inconclusive: 4.15 µM [inhibitor, single point] | –
52 | COc1ccc(Nc2nnc(SCC(=O)Nc3ccc4[nH]c(=O)[nH]c4c3)s2)cc1 | – | inactive: -1.56%
53 | O=P(Nc1ccccc1)(Nc1ccccc1)Oc1cccc(Cl)c1 | inconclusive: 18.5 µM [inhibitor, single point] | –
54 | CN(CCOc1cccc(C(F)(F)F)c1)Cc1ccccc1 | inconclusive: 18.5 µM [inhibitor, single point] | –
55 | N#Cc1cc([N+](=O)[O-])ccc1NC(=O)COC(=O)C1CC2CCCC(C1)C2=O (stereo not given) | – | inactive: 4.01%
56 | C/C(=N/NC(=O)CNC(=O)C1COc2ccccc2O1)c1cccc(O)c1 (stereo not given) | inconclusive: 8.28 µM [inhibitor, partial curve, poor fit] | –
57 | Cn1c(N)c(C(=O)COC(=O)/C=C/c2ccc(Cl)cc2)c(=O)n(C)c1=O | – | inactive: -22.6%
58 | O=C(O)c1cccnc1Sc1ccccc1Cl | – | inactive: 13.1%
59 | CSCCC(=O)N1CCCC(N2CCN(c3cccc(C(F)(F)F)c3)CC2)C1 (stereo not given) | – | inactive: -10.9%
60 | O=C(O)c1cccc(-n2c(-c3cnccn3)n[nH]c2=S)c1 | inconclusive: 3.29 µM [inhibitor, partial curve, poor fit] | –
61 | Fc1cccc(-n2cc(-c3ccccc3)c3c(=S)nc[nH]c32)c1 | inconclusive: 11.7 µM [inhibitor, partial curve, poor fit] | –
62 | O=C1CCCN1c1ccc(S(=O)(=O)N2CCN(c3ccccc3)CC2)cc1 | inconclusive: 18.5 µM [inhibitor, single point] | –
63 | COC(=O)CSc1nsc(SCC(=O)OC)c1C#N | – | inactive: 7.76% [at 5.75 µM]
64 | Cc1cc(NC(=O)COc2ccccc2C)ccc1NC(=O)c1cccs1 | inconclusive: 18.5 µM [inhibitor, single point] | –
65 | N/C(=N\OC(=O)CCC1CCCC1)c1ccc(Br)cc1 | inconclusive: 2.33 µM [inhibitor, full curve] | –
66 | COc1ccc(-n2c(O)c(C=NCC(c3ccco3)N3CCCC3)c3ccccc3c2=O)cc1OC (stereo not given) | active: 10.4 µM | –
67 | Cc1ccccc1C(=O)N1CCN(c2ccc(NC(=O)c3cccs3)cc2)CC1 | inconclusive: 13.1 µM [inhibitor, single point] | –
68 | Cc1ccc(NC2Sc3ccccc3NC2=O)cc1 (stereo not given) | – | inactive: 486%
69 | O=C(/C=C/Nc1ccc(OC(F)(F)F)cc1)C(F)(F)F | – | inactive: 154%
70 | Cc1ccc(S(=O)(=O)NCCC(=O)NC2CCC(C)CC2)cc1 (stereo not given) | inconclusive: 18.5 µM [inhibitor, single point] | –

Sorted by molecular weight (ascending): some entries from above.
Row | Compound | Potency | activity change, negative = inhibition
56 | C/C(=N/NC(=O)CNC(=O)C1COc2ccccc2O1)c1cccc(O)c1 (stereo not given) | inconclusive: 8.28 µM [inhibitor, partial curve, poor fit] | –
55 | N#Cc1cc([N+](=O)[O-])ccc1NC(=O)COC(=O)C1CC2CCCC(C1)C2=O (stereo not given) | – | inactive: 4.01%
49 | CC(=O)C1=NN(c2ccccc2)C(c2ccc3c(c2)OCO3)N1c1ccc(N2CCOCC2)cc1 (stereo not given) | inconclusive: 11.7 µM [inhibitor, partial curve, poor fit] | –
